# Experimental data from PubChem BioAssay AID342 (DTP/NCI, 2004).
# The list is a part of this screen's results and no random one: it covers a few groups of compounds. Other doses and runs of a compound may be missing. T/C gives the treated animals as a percentage of the vehicle group. Some entries show no survivor count and are marked so; the dose need not have been tolerated. Schedules are NCI's codes, read here as Q, the interval in days (D) or hours (H), X, the number of doses. Some schedule codes hold Z or #, which are not explained here. Signs of the kind (2×) give the number of equal values in this list. Some entries were tested several times; the results are listed from low to high.
# Test system: Swiss mice, Sarcoma 180 sc, mean tumor weight T/C
# Assay: NCI In Vivo Anticancer Drug Screen. Data for tumor model Sarcoma 180 (subcutaneous) in Swiss mice
# Settings: T/C endpoint: mean tumor weight, evaluation day not shown, higher T/C = larger tumour
# Description: The antitumor activity of compounds was measured in mice bearing transplantable tumors. Survival or tumor size were measured and the results are expressed as the measurement made in the treated group (T) divided by the measurement made in the vehicle treated control group (C). The tumor model used in this assay is Sarcoma 180 (subcutaneous) in Swiss mice
# [1] = dose: 50.0 mg/kg/injection, schedule: Q#A X014 (ip), vehicle: carboxymethylcellulose (CMC)
compound,measurement,setting,value
CCCCOc1ccc(N(CCCl)CCCl)cc1,T/C,"dose: 7.5 mg/kg/injection, schedule: Q#A X014 (ip), vehicle: methylcellulose (MC)",60 % of control [survivor count not shown]
same,T/C,"dose: 10.0 mg/kg/injection, schedule: Q#A X014 (ip), vehicle: carboxymethylcellulose (CMC)",78 % of control [survivor count not shown]
same,T/C,"dose: 11.0 mg/kg/injection, schedule: Q#A X014 (ip), vehicle: methylcellulose (MC)",19 % of control [survivor count not shown]
same,T/C,"dose: 14.7 mg/kg/injection, schedule: Q01DX007 (ip), vehicle: carboxymethylcellulose (CMC)",30 % of control [survivor count not shown]
same,T/C,"dose: 14.75 mg/kg/injection, schedule: Q#A X014 (ip), vehicle: methylcellulose (MC)",113 % of control [survivor count not shown]
same,T/C,"dose: 16.5 mg/kg/injection, schedule: Q#A X014 (ip), vehicle: methylcellulose (MC)",14 % of control [survivor count not shown]
same,T/C,"dose: 22.0 mg/kg/injection, schedule: Q01DX007 (ip), vehicle: carboxymethylcellulose (CMC)",20 % of control [survivor count not shown]
same,T/C,"dose: 22.0 mg/kg/injection, schedule: Q#A X014 (ip), vehicle: carboxymethylcellulose (CMC)",75 % of control [survivor count not shown]
same,T/C,"dose: 24.75 mg/kg/injection, schedule: Q#A X014 (ip), vehicle: methylcellulose (MC)",5 % of control [survivor count not shown]
same,T/C,"dose: 25.0 mg/kg/injection, schedule: Q#A X014 (ip), vehicle: methylcellulose (MC)",11 % of control [survivor count not shown]
same,T/C,"dose: 33.0 mg/kg/injection, schedule: Q01DX007 (ip), vehicle: carboxymethylcellulose (CMC)",8 % of control [survivor count not shown]
same,T/C,"dose: 33.0 mg/kg/injection, schedule: Q#A X014 (ip), vehicle: carboxymethylcellulose (CMC)",72 % of control [survivor count not shown]
same,T/C,"dose: 36.85 mg/kg/injection, schedule: Q#A X014 (ip), vehicle: methylcellulose (MC)",8 [survivor count not shown] and 79 % of control [survivor count not shown]
same,T/C,"dose: 49.6 mg/kg/injection, schedule: Q01DX007 (ip), vehicle: carboxymethylcellulose (CMC)",3 % of control [survivor count not shown]
same,T/C,[1],87 % of control [survivor count not shown]
same,T/C,"dose: 55.0 mg/kg/injection, schedule: Q#A X014 (ip), vehicle: methylcellulose (MC)","4 [survivor count not shown], 17 [survivor count not shown], 31 [survivor count not shown], 84 % of control [survivor count not shown]"
same,T/C,"dose: 74.0 mg/kg/injection, schedule: Q01DX007 (ip), vehicle: saline",10 % of control [survivor count not shown]
same,T/C,"dose: 75.0 mg/kg/injection, schedule: Q#A X014 (ip), vehicle: carboxymethylcellulose (CMC)",98 % of control [survivor count not shown]
same,T/C,"dose: 84.0 mg/kg/injection, schedule: Q#A X014 (ip), vehicle: methylcellulose (MC)",11 [survivor count not shown] and 55 % of control [survivor count not shown]
same,T/C,"dose: 110.0 mg/kg/injection, schedule: Q01DX007 (ip), vehicle: saline",15 % of control [survivor count not shown]
CCCCOc1ccccc1N(CCCl)CCCl,T/C,"dose: 6.8 mg/kg/injection, schedule: Q#A X014 (ip), vehicle: methylcellulose (MC)",71 % of control [survivor count not shown]
same,T/C,"dose: 10.4 mg/kg/injection, schedule: Q#A X014 (ip), vehicle: methylcellulose (MC)",81 % of control [survivor count not shown]
same,T/C,"dose: 15.5 mg/kg/injection, schedule: Q#A X014 (ip), vehicle: methylcellulose (MC)",75 % of control [survivor count not shown]
same,T/C,"dose: 23.25 mg/kg/injection, schedule: Q#A X014 (ip), vehicle: methylcellulose (MC)",74 % of control [survivor count not shown]
NC(Cc1cccc(N(CCCl)CCCl)c1)C(=O)O (configuration not stated),T/C,"dose: 1.25 mg/kg/injection, schedule: Q#A X014 (ip), vehicle: carboxymethylcellulose (CMC)",64 % of control [survivor count not shown]
same,T/C,"dose: 2.5 mg/kg/injection, schedule: Q#A X014 (ip), vehicle: carboxymethylcellulose (CMC)",26 % of control [survivor count not shown]
O=C(O)COc1cccc(N(CCCl)CCCl)c1,T/C,"dose: 6.5 mg/kg/injection, schedule: Q#A X014 (ip), vehicle: methylcellulose (MC)",107 % of control [survivor count not shown]
same,T/C,"dose: 10.0 mg/kg/injection, schedule: Q#A X014 (ip), vehicle: methylcellulose (MC)",77 % of control [survivor count not shown]
same,T/C,"dose: 15.0 mg/kg/injection, schedule: Q#A X014 (ip), vehicle: methylcellulose (MC)",53 % of control [survivor count not shown]
same,T/C,"dose: 22.0 mg/kg/injection, schedule: Q#A X014 (ip), vehicle: methylcellulose (MC)",37 % of control [survivor count not shown]
same,T/C,"dose: 22.5 mg/kg/injection, schedule: Q#A X014 (ip), vehicle: methylcellulose (MC)",67 [survivor count not shown] and 89 % of control [survivor count not shown]
same,T/C,"dose: 33.0 mg/kg/injection, schedule: Q#A X014 (ip), vehicle: methylcellulose (MC)",13 % of control [survivor count not shown]
same,T/C,"dose: 33.5 mg/kg/injection, schedule: Q#A X014 (ip), vehicle: methylcellulose (MC)",67 % of control [survivor count not shown]
same,T/C,"dose: 50.0 mg/kg/injection, schedule: Q#A X014 (ip), vehicle: methylcellulose (MC)",9 [survivor count not shown] and 37 % of control [survivor count not shown]
same,T/C,"dose: 75.0 mg/kg/injection, schedule: Q#A X014 (ip), vehicle: methylcellulose (MC)",11 % of control [survivor count not shown] (2×)
Oc1c(SCCCl)c(SCCCl)c(O)c(SCCCl)c1SCCCl,T/C,"dose: 63.0 mg/kg/injection, schedule: Q01DX007 (ip), vehicle: carboxymethylcellulose (CMC)",95 % of control [survivor count not shown]
same,T/C,"dose: 125.0 mg/kg/injection, schedule: Q01DX007 (ip), vehicle: carboxymethylcellulose (CMC)",111 % of control [survivor count not shown]
same,T/C,"dose: 250.0 mg/kg/injection, schedule: Q01DX007 (ip), vehicle: carboxymethylcellulose (CMC)",70 % of control [survivor count not shown]
same,T/C,"dose: 500.0 mg/kg/injection, schedule: Q01DX007 (ip), vehicle: carboxymethylcellulose (CMC)",84 % of control [survivor count not shown]
ClCCNCCCl,T/C,"dose: 6.25 mg/kg/injection, schedule: Q#A X014 (ip), vehicle: carboxymethylcellulose (CMC)",121 % of control [survivor count not shown]
same,T/C,"dose: 12.5 mg/kg/injection, schedule: Q#A X014 (ip), vehicle: carboxymethylcellulose (CMC)",91 % of control [survivor count not shown]
same,T/C,"dose: 25.0 mg/kg/injection, schedule: Q#A X014 (ip), vehicle: carboxymethylcellulose (CMC)",264 % of control [survivor count not shown]
same,T/C,[1],24 % of control [survivor count not shown]
NC1CCCCC1.NP(=O)(O)N(CCCl)CCCl,T/C,"dose: 8.0 mg/kg/injection, schedule: Q01DX007 (ip), vehicle: saline",53 % of control [survivor count not shown]
same,T/C,"dose: 16.0 mg/kg/injection, schedule: Q01DX007 (ip), vehicle: saline",83 % of control [survivor count not shown]
same,T/C,"dose: 32.0 mg/kg/injection, schedule: Q01DX007 (ip), vehicle: saline",43 % of control [survivor count not shown]
same,T/C,"dose: 64.0 mg/kg/injection, schedule: Q01DX007 (ip), vehicle: saline",14 % of control [survivor count not shown]
